Test results: publication PMC7795518, “Insights into the Interaction of LVV-Hemorphin-7 with Angiotensin II Type 1 Receptor” (International Journal of Molecular Sciences, 2020)
These are yes or no findings as the source states them, for the method shown. Binding seen in cells or lysates may run through a third protein. Some entries that bind do so weakly or less than the wild type.

Molecular target: NanoLuc-AT1R (angiotensin II type 1 receptor) (UniProt P30556)
Experiment: FRET or BRET; NanoBRET saturation binding on live HEK293FT cells expressing Nluc-AT1R; cells first treated with 100 uM LVV-H7 (10 uM also tested) 20 min at 37 C, then increasing doses of BODIPY-AngII 40 min at 37 C; specific binding by subtracting wells with 1 uM olmesartan medoxomil; only the binder purified

binding: binds
Binder: LVVYPWTQRF [LVV-hemorphin-7]
